Measurements reported in PubChem BioAssay AID1259308 (NCATS, 2017).
Screen: 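Candidate targets for better recombinant protein yield in mammalian cells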 (primary screen). Cell system: human HEK293 embryonic kidney cells stably expressing firefly luciferase (HEK-CMV-Luc2-Hygro). Knock-down reagent: single siRNA against human genes, 0.8 pmol siRNA per well. Duration: 72 h. Read-out: 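Luciferase light (ONE-Glo) measured on one replicate plate set and viability (CellTiter-Glo) on the other, scaled to a negative control siRNA, with robust z-scores and luciferase per cell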. Reading the numbers: total luciferase, z-score and total luciferase, % of control: higher = more reporter protein produced; luciferase per cell, z-score: higher = more reporter output per viable cell; viable cells, % of control: higher = more viable cells. Hit rule: 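An siRNA counts as active if its total luciferase robust z-score exceeds 3; genes with two or more such siRNAs out of three were retested with fresh siRNAs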. Calls: active = raised luciferase; inactive = no rise.
Shown is an unselected part of about 59,000 reagents tested. About 1,510 of all reagents (2.6%) were called active. 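Calls use total luciferase alone and ignore viability, so some active siRNAs may act by altering cell number.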 Reagents against one gene are numbered here.

no.	Target gene	siRNA no.	total luciferase, z-score	total luciferase, % of control	luciferase per cell, z-score	viable cells, % of control	Call
1	PRSS45P (GeneID 377047)	1	1.91	120	2.62	67.2	inactive
2	PRSS45P (GeneID 377047)	2	-0.963	62.7	-1.43	102	inactive
3	PRSS45P (GeneID 377047)	3	-0.629	69.4	-1.16	105	inactive
4	CBLL1 (GeneID 79872)	1	-0.878	64.4	-1.59	110	inactive
5	CBLL1 (GeneID 79872)	2	-1.27	56.5	-1.85	103	inactive
6	CBLL1 (GeneID 79872)	3	-0.794	66.1	-0.847	92.3	inactive
7	RNF186 (GeneID 54546)	1	-0.428	73.4	0.266	76.5	inactive
8	RNF186 (GeneID 54546)	2	1.06	103	0.569	99.1	inactive
9	RNF186 (GeneID 54546)	3	-0.412	73.7	-0.73	99.8	inactive
10	CCDC15 (GeneID 80071)	1	1.69	116	1.79	80.6	inactive
11	CCDC15 (GeneID 80071)	2	2.16	125	2.01	82.2	inactive
12	CCDC15 (GeneID 80071)	3	-0.192	78.1	-0.148	90.7	inactive
13	FHIP1B (GeneID 84067)	1	1.17	105	0.857	93.7	inactive
14	FHIP1B (GeneID 84067)	2	-0.673	68.5	-1	99.7	inactive
15	FHIP1B (GeneID 84067)	3	2.97	141	1.44	108	inactive
16	TBC1D30 (GeneID 23329)	1	-1.02	61.7	-0.566	80	inactive
17	TBC1D30 (GeneID 23329)	2	1.35	109	2.78	58.4	inactive
18	TBC1D30 (GeneID 23329)	3	1.64	114	1.62	83.5	inactive
19	PSMD8 (GeneID 5714)	1	-0.33	75.3	4.59	25.1	inactive
20	PSMD8 (GeneID 5714)	2	1.25	107	2.61	60	inactive
21	PSMD8 (GeneID 5714)	3	1.29	108	2.18	67.6	inactive
22	ARL2BPP3 (GeneID 646879)	1	-0.769	66.6	-0.808	92	inactive
23	ARL2BPP3 (GeneID 646879)	2	-0.948	63	-0.895	89.1	inactive
24	ARL2BPP3 (GeneID 646879)	3	0.393	89.7	0.338	91.7	inactive
25	VSTM2B-DT (GeneID 284395)	1	-0.828	65.4	-0.995	95	inactive
26	VSTM2B-DT (GeneID 284395)	2	0.771	97.2	0.726	89.7	inactive
27	VSTM2B-DT (GeneID 284395)	3	-0.486	72.2	0.064	79.4	inactive
28	FGF14-AS2 (GeneID 283481)	1	0.0368	82.6	-0.265	99	inactive
29	FGF14-AS2 (GeneID 283481)	2	0.108	84	-0.462	106	inactive
30	FGF14-AS2 (GeneID 283481)	3	0.449	90.8	0.0687	99.7	inactive
31	DOK7 (GeneID 285489)	1	0.299	87.8	-0.425	110	inactive
32	DOK7 (GeneID 285489)	2	-0.321	75.5	1.95	50.5	inactive
33	DOK7 (GeneID 285489)	3	0.00252	81.9	0.47	80.9	inactive
34	CSDE1 (GeneID 7812)	1	0	81.9	-0.584	107	inactive
35	CSDE1 (GeneID 7812)	2	-1.02	61.5	-1.07	91	inactive
36	CSDE1 (GeneID 7812)	3	3.41	150	2.1	96.2	active
37	H2BW2 (GeneID 286436)	1	1.14	104	0.808	94.4	inactive
38	H2BW2 (GeneID 286436)	2	0.344	88.7	0.292	91.8	inactive
39	H2BW2 (GeneID 286436)	3	-0.204	77.8	-0.447	97.8	inactive
40	BATF3 (GeneID 55509)	1	0.205	86	-0.178	101	inactive
41	BATF3 (GeneID 55509)	2	-0.627	69.4	-0.377	85.7	inactive
42	BATF3 (GeneID 55509)	3	0.482	91.5	0.587	87.6	inactive
43	ANO9 (GeneID 338440)	1	2.12	124	3.35	57.4	inactive
44	ANO9 (GeneID 338440)	2	-1.99	42.3	-3.07	106	inactive
45	ANO9 (GeneID 338440)	3	-0.319	75.5	-0.378	93.2	inactive
46	LYRM7 (GeneID 90624)	1	-0.33	75.3	-0.81	104	inactive
47	LYRM7 (GeneID 90624)	2	-0.208	77.7	0.155	83.4	inactive
48	LYRM7 (GeneID 90624)	3	0.133	84.5	0.253	88.4	inactive
49	ITPR1 (GeneID 3708)	1	-0.67	68.6	-0.71	92.4	inactive
50	ITPR1 (GeneID 3708)	2	0.731	96.4	0.569	92.8	inactive
51	ITPR1 (GeneID 3708)	3	0.367	89.2	0.725	82.3	inactive
52	TNFRSF6B (GeneID 8771)	1	0.505	91.9	0.215	97.1	inactive
53	TNFRSF6B (GeneID 8771)	2	1.04	103	0.55	99.2	inactive
54	TNFRSF6B (GeneID 8771)	3	-0.939	63.2	-0.931	90.3	inactive
55	RPL22P11 (GeneID 402100)	1	-0.679	68.4	-0.868	96	inactive
56	RPL22P11 (GeneID 402100)	2	-0.645	69	-0.451	86.9	inactive
57	RPL22P11 (GeneID 402100)	3	-0.716	67.6	-0.804	93.4	inactive

Hits, of those listed so far:
Target gene	siRNA no.	total luciferase, z-score	total luciferase, % of control	luciferase per cell, z-score	viable cells, % of control	Call
CSDE1 (GeneID 7812)	3	3.41	150	2.1	96.2	active
